The exact form of at least one protein or probe is not confirmed.

This series deals with GST-OsMYB73 (Oryza sativa (rice)). Put plainly: EMSA. As to conditions: EMSA kit with 5'-biotin probes; recombinant protein; protein details: GST; label: 5' biotin.

Regarding “TCCCCACCCTACGCGGCCCT (double strand) [OsISA2 probe 1]”, the binding result was “binds”.

Take “CTTACTGGTAGGTGACATGC (double strand) [OsNF-YB1 probe 2]”: the binding result is “binds”.

Take “GTATAGACCGTTAAGGATAG (double strand) [OsYUC11 probe 3]”: the binding result was “binds”.

As to “TTTTAAGTAGGTATAGATGT (double strand) [OsLTPL36 probe 4]”, the binding result was “binds”.
